The record followed here is publication doi:10.1101/570747.

This experiment deals with T1, GFP-Cdc42ep5^WT (murine Cdc42ep5 with N-terminal GFP) (murine) (UniProt Q9Z0X0).
T1 sequence: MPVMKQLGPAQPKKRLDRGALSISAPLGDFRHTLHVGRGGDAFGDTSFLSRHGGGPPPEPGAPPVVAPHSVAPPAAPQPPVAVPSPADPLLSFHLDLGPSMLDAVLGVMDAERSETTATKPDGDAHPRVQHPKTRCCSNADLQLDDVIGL
In words: co-IP.

These are yes or no findings as the source states them, for the method shown. Binding seen in cells or lysates may run through a third protein. Some results given as binding are weak or reduced against the parent protein; the word gives no strength. Tags and fused reporters may be left off the sequences shown.

B1: Sept9 (endogenous, murine) (protein, UniProt Q80UG5 1-583)
chain: MKKSYSGVTRTSSGRLRRLADPTGPALKRSFEVEEIEPPNSTPPRRVQTPLLRATVASSSQKFQDLGVKNSEPAARLVDSLSQRSPKPSLRRVELAGAKAPEPMSRRTEISIDISSKQVESTASAAGPSRFGLKRAEVLGHKTPEPVPRRTEITIVKPQESVLRRVETPASKIPEGSAVPATDAAPKRVEIQVPKPAEAPNCPLPSQTLENSEAPMSQLQSRLEPRPSVAEVPYRNQEDSEVTPSCVGDMADNPRDAMLKQAPASRNEKAPMEFGYVGIDSILEQMRRKAMKQGFEFNIMVVGQSGLGKSTLINTLFKSKISRKSVQPTSEERIPKTIEIKSITHDIEEKGVRMKLTVIDTPGFGDHINNENCWQPIMKFINDQYEKYLQEEVNINRKKRIPDTRVHCCLYFIPATGHSLRPLDIEFMKRLSKVVNIVPVIAKADTLTLEERVYFKQRITADLLSNGIDVYPQKEFDEDAEDRLVNEKFREMIPFAVVGSDHEYQVNGKRILGRKTKWGTIEVENTTHCEFAYLRDLLIRTHMQNIKDITSNIHFEAYRVKRLNEGNSAMANGIEKEPEAQEM
On to B1, for which the binding entry is reported as “binds”.
